In PubChem BioAssay AID493014 (National Center for Advancing Translational Sciences (NCATS), 2011):
The campaign covered roughly 340,000 compounds. About 170 (0.05%) were called active. The shares of active, inactive and inconclusive entries below differ from those in the screen. Calls come from the whole dose curve; as a rule, active = well fitted inhibition curve with a large enough effect in the signal ratio, with a control signal flat (not every such curve was filed as active); inconclusive = small, poorly fitted or top-dose-only effect, or effect the other way, or a change in a side signal; inactive = flat fitted curve, though single readings scatter; the % refers to the signal ratio. Potencies beside an inconclusive call are fits to weak or partial responses and may not hold up.
Potency is the fitted concentration of half-maximal effect.

Test: qHTS Assay to Find Inhibitors of Chronic Active B-Cell Receptor Signaling;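 for activity change, negative = inhibition: plate controls were basal doxycycline-induced cells for no effect and cells given 10 µM MG132 for full effect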
Conditions: ABC-DLBCL IkBa-CBG/CBR reporter, luminescence ratio (green luciferase fused to IkBa over red control in TMD8 lymphoma cells), 4 h; activity change, negative = inhibition: at 46.1 µM (top of the series) unless noted
Summary of the method: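 Doxycycline induced both beetle luciferases in TMD8 lymphoma cells; IKK-driven degradation limits the IkappaBalpha-fused green signal, while red luminescence normalises for cell number and nonspecific effects. Compounds tested up to 46 uM, 4 hrs.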
With `CCN(Cc1nc(-c2ccccc2)no1)C(=O)c1ccoc1C` the “activity change, negative = inhibition” value was inactive: -6.31%. In the case of `Cc1nc(C)n(C(C)CNS(=O)(=O)c2ccc(C)c(C)c2)n1` (stereo not given), the activity change, negative = inhibition is reported as inconclusive: -5%. With `Cn1c2ccccc2c2cc(/C=N/NC(=O)c3cc(O)cc(O)c3)ccc21` the activity change, negative = inhibition was inconclusive: -14.9%. With `COc1ccc(S(=O)(=O)N2CCCCCC2)cc1C(=O)N(C)CC(=O)Nc1c(Cl)cccc1Cl` the “activity change, negative = inhibition” value was inactive: -7.21%. With `O=c1cc(-c2ccccc2)nc(Cc2c(Cl)cccc2Cl)[nH]1` the “activity change, negative = inhibition” value was inactive: 1.55%. With `Cc1ccc(Nc2nc(Cl)nc(N(C)C#N)n2)cc1` the “activity change, negative = inhibition” value was inactive: 5.08%. With `CCOc1ccccc1NC(=S)NC(=O)CCCOc1ccc(Cl)cc1Cl` the activity change, negative = inhibition was inconclusive: 14%. With `CCc1ccc(NC(=O)CSc2nnc(CC)c(CC)n2)cc1` the activity change, negative = inhibition was inconclusive: 13.2%. In the case of `O=C(CN1C(=O)S/C(=C\c2ccc(F)cc2)C1=O)Nc1cccc(S(=O)(=O)NCc2ccco2)c1`, the Potency is reported as inconclusive: 1.26 µM [falling, full curve, poor fit]. For `CCCCN1C2CCCC1CC(NC(=O)C1CCCCC1)C2` (stereo not given), the Potency was inconclusive: 11.6 µM [falling, partial curve, poor fit]. With `CC(C)[C@@H](NC(=O)C1CCN(C(=O)[C@@H]2CCCN2C(=O)OC(C)(C)C)CC1)C(=O)NCc1ccc(F)cc1` the activity change, negative = inhibition was inconclusive: -144%. In the case of `C=CCn1c(SCc2csc(C)n2)nc2sc3c(c2c1=O)CCCC3`, the activity change, negative = inhibition is reported as inconclusive: 15.9%. For `CCOC(=O)c1c(NC(=O)c2ccc(-n3cnnn3)cc2)sc2c1CCCC2`, the “activity change, negative = inhibition” value was inactive: -1.62%. In the case of `Cc1nn(CCOc2ccccc2)c(=O)n1-c1cccc(F)c1`, the “activity change, negative = inhibition” value is reported as inactive: 1.64%. For `COc1cc(/C=C/c2ccc3cccc(OC)c3n2)c(OC(C)=O)c([N+](=O)[O-])c1`, the Potency was inconclusive: 25.9 µM [rising, single point]. With `CCn1c(SCC(=O)Nc2ccc(N3CCOCC3)cc2)nnc1-c1ccc(OC)cc1` the Potency was inconclusive: 11.6 µM [falling, partial curve]. With `O=C(CNC(=O)C1COc2ccccc2O1)Nc1cc(Cl)ccc1Cl` (stereo not given) the activity change, negative = inhibition was inconclusive: 1.07%. With `CC(C)c1[nH]nc2c1C(c1ccc(OC(=O)c3ccco3)cc1)C(C#N)=C(N)O2` (stereo not given) the activity change, negative = inhibition was inconclusive: 0.0783%. With `CCOc1ccc(CN(C)C(=O)Cc2c[nH]c3ccccc23)cc1` the activity change, negative = inhibition was inconclusive: 0.528%. In the case of `CC1=CC2=NC(=O)/C(=C\c3cccn3CCOc3ccccc3)C(=N)N2O1`, the activity change, negative = inhibition is reported as inconclusive: -10.1%. In the case of `CSc1nc2nc(C)cc(-c3ccccc3)n2n1`, the Potency is reported as inconclusive: 20.6 µM [rising, partial curve, poor fit]. In the case of `CC1c2cc3c(cc2CCN1C(=O)c1ccc(Br)cc1)OCCCO3` (stereo not given), the Potency is reported as inconclusive: 35.5 µM [falling, single point]. In the case of `COc1ccc2oc(=Nc3cc(F)ccc3F)c(C(N)=O)cc2c1`, the activity change, negative = inhibition is reported as inconclusive: 9.53%. With `Cc1c(Cc2ccccc2)sc(/N=C/c2ccc3ccccc3c2)c1C(N)=O` the activity change, negative = inhibition was inconclusive: 15.7%. With `Cc1ccc(NC(=O)C(C)S)cc1` (stereo not given) the activity change, negative = inhibition was inconclusive: -8.62%. With `COc1ccc(CSc2ncnc3sccc23)cc1F` the activity change, negative = inhibition was inconclusive: 6.19%. With `ClCc1nc2ccccc2c2ccccc12` the activity change, negative = inhibition was inconclusive: -29.4%. With `O=C(N/N=C/c1cc(Cl)c(O)c(Cl)c1)c1cc2c(ccc3ccccc32)o1` the activity change, negative = inhibition was inconclusive: 3.43%. With `Cc1cc(=O)n(CC(=O)Nc2ccc(Cl)c(Cl)c2)c(-n2nc(C)cc2C)n1` the activity change, negative = inhibition was inconclusive: 2.98%. With `COc1ccc(Cl)cc1NC(=O)COC(=O)/C=C/c1c(C)nn(C2CCS(=O)(=O)C2)c1Cl` (stereo not given) the activity change, negative = inhibition was inconclusive: 3.11%. In the case of `CCc1ccccc1NC(=O)c1sc2nc(C)cc(C)c2c1N`, the “activity change, negative = inhibition” value is reported as inactive: -0.946%. For `Brc1ccc(-c2nn3c(-c4ccccn4)nnc3s2)o1`, the activity change, negative = inhibition was inconclusive: -17.6%. In the case of `C=CCNC(=S)N1CCC(C(=O)c2ccc(Cl)cc2)CC1`, the “activity change, negative = inhibition” value is reported as inactive: -0.566%. For `O=C(CC1SC(=Nc2ccccc2)N(CCc2ccccn2)C1=O)Nc1ccc(F)cc1` (stereo not given), the “activity change, negative = inhibition” value was inactive: -9.77%. For `COc1ccc(NC(=O)c2oc3ccccc3c2NC(=O)C2CC2)cc1`, the activity change, negative = inhibition was inconclusive: -1.21%. With `O=C(CCCCCn1c(=S)[nH]c2ccc(N3CCOCC3)cc2c1=O)NC1CCN(Cc2ccccc2)CC1` the Potency was inconclusive: 4.47 µM [falling, full curve]. With `CCOC(=O)CN1C(=O)N(c2ccc(C)c(C)c2)S(=O)(=O)c2ccccc21` the Potency was inconclusive: 0.112 µM [rising, full curve, poor fit]. For `COc1ccc(/C=C2\Sc3ccc(C(=O)N4CCN(Cc5ccccc5)CC4)cc3N(C)C2=O)cc1OC`, the Potency was inconclusive: 28.2 µM [falling, single point]. For `COc1cc(NC(=O)Cc2ccccc2)nc(OC)n1`, the activity change, negative = inhibition was inconclusive: 7.85%. With `COc1ccc(NC(=O)c2sc(SC)nc2N)cc1` the activity change, negative = inhibition was inconclusive: -13.1%. For `CC1CCc2c(C(=O)Nc3cccc(-c4nn[nH]n4)c3)csc2C1` (stereo not given), the activity change, negative = inhibition was inconclusive: -12.7%. For `CCOC(=O)c1c(N/N=C/c2ccncc2)n[nH]c1C`, the activity change, negative = inhibition was inconclusive: 3.14%. In the case of `CCN(CC)CC(=O)Nc1c(Br)ccc2c1OCO2`, the Potency is reported as inconclusive: 25.1 µM [falling, single point]. With `O=C(Cc1n[nH]c(=O)c2ccccc12)Nc1cccc(S(=O)(=O)N2CCCCCC2)c1` the Potency was inconclusive: 16.4 µM [falling, single point]. With `COc1cc2cc(C(c3nnnn3C(C)(C)C)N3CCC(C)CC3)c(=O)[nH]c2cc1OC` (stereo not given) the activity change, negative = inhibition was inconclusive: 3.73%. For `Cc1ccc(-n2ncc3c(NCCCN(C)C)ncnc32)cc1Cl`, the activity change, negative = inhibition was inconclusive: -0.836%. With `O=C(/C=C/c1ccco1)NC(=S)Nc1ccccc1N1CCCC1` the Potency was inconclusive: 35.5 µM [falling, single point]. In the case of `CC(C)CNC(=O)CCc1nc(-c2ccccc2)no1`, the Potency is reported as inconclusive: 8.91 µM [rising, partial curve]. In the case of `COc1ccc(C2Sc3nncn3N2Cc2ccc(C#N)cc2)cc1` (stereo not given), the activity change, negative = inhibition is reported as inconclusive: -10%. In the case of `Cc1ccc2[nH]c(=O)c(CN(CCCO)C(C)c3nnnn3Cc3ccco3)cc2c1` (stereo not given), the activity change, negative = inhibition is reported as inconclusive: -5%. With `CCOC(=O)[C@@H]1[C@H]2COc3cc(OC)ccc3[C@@H]2N2C(=O)N(c3cccc(C)c3)C(=O)[C@]12C` the activity change, negative = inhibition was inconclusive: -30.1%. In the case of `O=[N+]([O-])c1ccc(N2CCN(c3cccc(Cl)c3)CC2)cn1`, the Potency is reported as inconclusive: 0.0891 µM [falling, full curve, poor fit]. In the case of `CCOC(=O)c1c(N)sc(=S)c2c1CCC2`, the activity change, negative = inhibition is reported as inconclusive: 2.81%. For `CC(C)(C)c1ccc(OCc2nnc(SCC(N)=O)n2N)cc1`, the activity change, negative = inhibition was inconclusive: -28%. In the case of `CCOc1ccccc1-n1ccn(CC(=O)Nc2ccc(Br)cc2F)c(=O)c1=O`, the “activity change, negative = inhibition” value is reported as inactive: 18.5%. For `Cn1c(-c2ccccc2)cnc1NCc1ccccc1`, the Potency was inconclusive: 25.1 µM [falling, single point]. With `N=C1C(c2nc3ccccc3s2)=C(O)CN1NC(=O)c1ccco1` the activity change, negative = inhibition was inconclusive: 1.96%. For `CC(=O)Nc1ccc(C(=O)OCC(=O)N(c2ccccc2)C2CCCCC2)cc1`, the activity change, negative = inhibition was inconclusive: 1.01%. In the case of `Oc1ccccc1-n1c(-c2ccccc2)ccc1-c1ccccc1`, the activity change, negative = inhibition is reported as inconclusive: -19.5%. For `COc1ccc([C@]23Cc4cc(OC)c(OC)cc4C(O2)C2=C(CCCC2=O)O3)cc1`, the activity change, negative = inhibition was inactive: -13.6% [at 9.22 µM]. For `Cn1c(SCC(=O)NCC2CCCO2)ncc(C(=O)Nc2ccc(Cl)cc2)c1=O` (stereo not given), the “activity change, negative = inhibition” value was inactive: 5.26%. In the case of `N#CCCN(C(=O)COC(=O)c1cc(S(=O)(=O)N2CCOCC2)ccc1Cl)c1ccc(F)cc1`, the “activity change, negative = inhibition” value is reported as inactive: 0.372%. With `Cc1cc(C(=O)NNC(=O)c2cccc(C(F)(F)F)c2)no1` the Potency was inconclusive: 35.5 µM [falling, single point]. With `COc1ccc(C(=O)Nc2cccc(C(=O)N3CCCCC3)c2)cc1` the activity change, negative = inhibition was inconclusive: 0.108%. For `COCCn1c(SCc2cccnc2)nnc1-c1ccco1`, the activity change, negative = inhibition was inconclusive: 4.75%. In the case of `NS(=O)(=O)c1ccc2c(c1)C1C=CCC1C(C1CC=CCC1)N2` (stereo not given), the activity change, negative = inhibition is reported as inconclusive: 0.0389%. With `N/C(=N\c1nc2ccccc2o1)NC(=O)c1ccccc1` the Potency was inconclusive: 13 µM [falling, partial curve]. With `CC(=O)Nc1nc(-c2ccc3ccccc3c2)cs1` the activity change, negative = inhibition was inconclusive: -0.907%. In the case of `O=C(Nc1cccc(S(=O)(=O)Nc2ccc(Cl)cc2)c1)c1ccc(Cl)nc1`, the activity change, negative = inhibition is reported as inconclusive: 22.4%. For `Cc1nn(CC(C)C)c(Cl)c1C(=O)N(c1ccc(Cl)cc1F)S(C)(=O)=O`, the activity change, negative = inhibition was inconclusive: -9.95%. In the case of `CCOC(=O)CNS(=O)(=O)c1ccc2c3c(cccc13)C(=O)N2CC`, the “activity change, negative = inhibition” value is reported as inactive: -15.7%. For `CC(=O)Nc1ccc(NC(=O)c2ccc(C)c(S(=O)(=O)Nc3cccc(C)c3)c2)cc1`, the activity change, negative = inhibition was inconclusive: -14.2%. In the case of `O=C(NC1CCN(Cc2ccccc2)CC1)c1ccccc1Cl`, the “activity change, negative = inhibition” value is reported as inactive: -0.751%. For `C=CC(=O)Nc1ccc(Nc2nc(NC3CCC(N(C)C)CC3)nc3c2ncn3C(C)C)cc1` (stereo not given), the activity change, negative = inhibition was inconclusive: 4.54%. For `CCN(CC(=O)Nc1ccc(OC)cc1)C(=O)c1cc(-c2cccs2)nn1-c1ccccc1`, the “activity change, negative = inhibition” value was inactive: -10.9%. In the case of `CCOc1ccc(N=Cc2c(C)[nH]n(-c3nc4ccccc4[nH]3)c2=O)cc1`, the Potency is reported as inconclusive: 2.91 µM [falling, full curve]. With `Oc1ccccc1OCc1nc2ccccc2s1` the Potency was inconclusive: 23.1 µM [falling, single point]. In the case of `Cc1c(C(=O)NN)[nH]c2ccc([N+](=O)[O-])cc12`, the Potency is reported as inconclusive: 7.94 µM [falling, partial curve]. In the case of `COc1cccc(C(=O)N/N=C/c2cn[nH]c2-c2ccc(OC)cc2OC)c1`, the Potency is reported as inconclusive: 12.6 µM [falling, partial curve]. With `N#CCCN/N=C(\Cc1nc2ccccc2[nH]1)c1ccccc1` the Potency was inconclusive: 29.1 µM [falling, single point].
